ChEMBL document CHEMBL4190317, “Design, synthesis, and biological evaluation of novel 3-substituted imidazo[1,2-a]pyridine and quinazolin-4(3H)-one derivatives as PI3Kα inhibitors” (Eur J Med Chem, 2017)

How the values were obtained:
SK-HEP1 = assay: Antiproliferative activity against human SKHEP1 cells after 72 hrs by SRB assay; settings: SK-HEP1, 72 h
SNU-638 = assay: Antiproliferative activity against human SNU638 cells after 72 hrs by SRB assay; settings: SNU-638, 72 h
HUVEC = assay: Cytotoxicity against HUVEC after 72 hrs by SRB assay; settings: Homo sapiens
HCT-116 = assay: cells; settings: Homo sapiens, HCT-116, 72 h

- IC50 (SK-HEP1): 110 nM
- IC50 (SNU-638): 10 nM
- IC50 (HCT-116): 10 nM
Structure (SMILES): COc1ncc(-c2ccc3ncc(C(=O)NCCN4CCOCC4)n3c2)cc1NS(=O)(=O)c1ccc(F)cc1F
- IC50 (HUVEC): 2940 nM
